# Measured values reported in PubChem BioAssay AID2685 (National Center for Advancing Translational Sciences (NCATS), 2010).
# Some of the results follow. These are further read-outs of the screen, such as a control signal, another cell line or another target. No call is given for them. Most of these compounds were active or inconclusive in the main read-out, so they are no random draw. Potencies come from curve fits of mixed quality, noted in brackets.
# Test: qHTS Assay for Lipid Storage Modulators in Drosophila S3 Cells;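 for cell number change: cells counted by Cell Tracker Red CMTPX staining in the red channel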
# Conditions: BODIPY lipid droplet fluorescence, 18-24 h; for cell number change: measured here: cell count max response, cells fed with added oleic acid
# Method in brief: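 Drosophila S3 cells got compounds at several concentrations plus oleic acid (400 uM solution). Laser-scanning cytometry with 488 nm excitation read lipid droplets at 500-530 nm and cells at 575-640 nm. Percent activity was relative to 20 uM Triacsin C.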
# [1] = measured here: lipid fluorescence (Fed channel) AC50, cells fed with added oleic acid
# [2] = measured here: cell number channel AC50, cells fed with added oleic acid
compound,measurement,setting,value
CC1=Nc2cc(C(=O)NCC3CCCO3)ccc2Sc2ccc(C)cc21 (stereo not drawn),cell number change,,-22.6%
same,AC50,[1],"23.1 µM [rising, single point]"
O=C(NC(NC1CCS(=O)(=O)C1)C(Cl)(Cl)Cl)c1cccc(Cl)c1 (stereo not drawn),cell number change,,24.7%
same,AC50,[1],"4.11 µM [rising, partial curve, poor fit]"
CCN(CC)Cc1c(O)ccc2c(=O)c(-c3ccccc3OC)coc12,cell number change,,-21.1%
Cc1ccc2cc(C(c3nnnn3Cc3ccccc3)N3CCN(c4ccccc4)CC3)c(=O)[nH]c2c1 (stereo not drawn),cell number change,,41.1%
same,AC50,[2],"14.6 µM [rising, single point]"
same,AC50,[1],"23.1 µM [rising, partial curve]"
COc1ccccc1N1CCN(C2CCCN(Cc3ccc(Cl)cc3)C2)CC1 (stereo not drawn),cell number change,,1.1%
CCOC(=O)C1=C(C)NC(C)=C(C(=O)OCC)C1C(=O)OCC(=O)N(CC)C1CCS(=O)(=O)C1 (stereo not drawn),cell number change,,91.9%
same,AC50,[1],"2.91 µM [falling, single point]"
O=C(Nc1ccc(Cc2ccncc2)cc1)c1ccco1,cell number change,,-9.13%
same,AC50,[1],"16.4 µM [rising, single point]"
Cc1cccc(NC(=O)c2cccnc2)c1C,cell number change,,41.1%
same,AC50,[2],"29.1 µM [rising, single point]"
O=C(COc1ccccc1Cl)NCCNC(=O)c1ccccn1,cell number change,,-17.1%
same,AC50,[1],"3.26 µM [falling, full curve]"
Cc1ccc(NC(=O)CCSc2nnc(Cc3ccccc3)o2)cc1,cell number change,,-5.01%
same,AC50,[1],"0.206 µM [falling, full curve, poor fit]"
CC(=O)c1cccc(NC(=O)CN2C(=O)c3ccccc3C2=O)c1,cell number change,,1.57%
same,AC50,[1],"14.6 µM [rising, partial curve]"
CC1(c2nnc(-c3ccc(F)cc3)o2)CC(c2ccccc2)=NO1 (stereo not drawn),cell number change,,25.7%
same,AC50,[1],"7.31 µM [rising, partial curve, poor fit]"
COc1ccccc1C(=O)Nc1c2c(nn1-c1cccc(C)c1C)CS(=O)C2 (stereo not drawn),cell number change,,27.2%
O=C(NC1CCS(=O)(=O)C1)c1cn(-c2ccccc2)nc1-c1ccccc1 (stereo not drawn),cell number change,,5.77%
same,AC50,[1],"29.1 µM [rising, single point]"
Cc1nnc(SCC2=C(C(=O)O)N3C(=O)C(NC(=O)COc4ccc(F)cc4)C3SC2)s1 (stereo not drawn),cell number change,,2.2%
same,AC50,[1],"0.13 µM [falling, full curve, poor fit]"
Cc1ccc(CNC(=O)CCCCCNc2nc(=S)[nH]c3ccccc23)cc1,AC50,[1],"6.51 µM [rising, single point]"
COCCN(CCOC)S(=O)(=O)c1ccc(C(=O)Nc2nc3c(s2)CCc2ccccc2-3)cc1,cell number change,,-38.7%
same,AC50,[2],"16.4 µM [falling, single point]"
same,AC50,[1],"29.1 µM [falling, single point]"
O=C(COC(=O)c1ccccc1NC(=O)c1ccco1)NCc1ccc2c(c1)OCO2,cell number change,,-59.1%
same,AC50,[2],"16.4 µM [falling, single point]"
same,AC50,[1],"0.116 µM [rising, single point]"
Cc1cc(C(=O)N/N=C/c2ccc(-c3ccccc3Cl)o2)n[nH]1,cell number change,,-38.2%
same,AC50,[2],"13 µM [falling, single point]"
COC(=O)CCCn1nc(NC(=O)COc2ccc(F)cc2)cc1C,cell number change,,2.86%
COc1cccc(C(C(=O)NCC2CCCO2)N(C(=O)Cn2nnc3ccccc32)c2ccccc2C(C)=O)c1OC (stereo not drawn),cell number change,,1.28%
same,AC50,[1],"0.116 µM [rising, single point]"
Cc1cc(C)c(C2C3=C(Nc4c2c(C)nn4-c2ccccn2)c2ccccc2C3=O)c(C)c1 (stereo not drawn),cell number change,,38.6%
same,AC50,[2],"2.31 µM [rising, full curve]"
same,AC50,[1],"2.59 µM [rising, full curve]"
Cc1c(Cl)ccc2c1NC(=O)[C@]21N[C@@H](Cc2ccccc2)[C@H]2C(=O)N(c3ccc(F)cc3)C(=O)[C@H]21,cell number change,,-20.3%
COc1ccc(/C=C/c2nc3ccccc3c(=O)o2)cc1,cell number change,,-5.93%
same,AC50,[1],"6.51 µM [rising, full curve, poor fit]"
Brc1ccc2nc(CSc3ncn[nH]3)cn2c1,cell number change,,-10.2%
same,AC50,[2],"1.3 µM [rising, full curve, poor fit]"
Brc1cccc(CN2CCN(c3ncccn3)CC2)c1,AC50,[1],"29.1 µM [rising, single point]"
Cc1c(C)c2c(OCC(=O)NCCCO)cc3c(c2oc1=O)CCC(C)(C)O3,cell number change,,15.5%
Cc1cc(Cl)c(OCCOCCN2CCCCC2)c(Br)c1,cell number change,,5.88%
same,AC50,[1],"0.82 µM [falling, partial curve]"
Cn1c(SCc2nc(-c3ccc(Br)cc3)no2)nnc1-c1ccco1,cell number change,,-1.73%
same,AC50,[1],"0.0731 µM [rising, full curve, poor fit]"
CC(O)Cn1c(N2CCCC2)nc2c1c(=O)[nH]c(=O)n2C (stereo not drawn),cell number change,,-0.293%
COc1ccc2nc(-c3ccccc3)cc(C(=O)OCC(=O)N3CC(C)OC(C)C3)c2c1 (stereo not drawn),cell number change,,-18%
same,AC50,[1],"23.1 µM [falling, partial curve]"
Cc1nn(-c2ccccc2)c2c1C(c1ccc(Br)s1)C(C#N)=C(N)O2 (stereo not drawn),cell number change,,-25.6%
O=C(Cn1nc(-c2ccc(N3CCOCC3)c([N+](=O)[O-])c2)c2ccccc2c1=O)N1CCCCC1,cell number change,,28.9%
same,AC50,[1],"18.4 µM [rising, partial curve]"
O=C(CN1CCS(=O)(=O)CC1)NNC(=O)C1CCCCC1,cell number change,,-40.9%
same,AC50,[2],"23.1 µM [falling, single point]"
Cc1cccc2cc(CN(CCCO)C(=O)Nc3cccc(Cl)c3)c(=O)[nH]c12,AC50,[2],"0.058 µM [rising, partial curve]"
same,AC50,[1],"5.17 µM [rising, full curve]"
Cc1ccc(/C(N)=N/OC(=O)Cc2cccs2)cc1,cell number change,,-7.39%
same,AC50,[1],"29.1 µM [falling, single point]"
Cc1ccc(C)c(-n2ccnc2SCC(=O)O)c1,cell number change,,-8.85%
same,AC50,[2],"0.0116 µM [falling, full curve, poor fit]"
same,AC50,[1],"0.58 µM [falling, full curve]"
CN(C)C1(CN=Cc2cc(Cl)cc([N+](=O)[O-])c2O)CCCCC1,cell number change,,12.8%
same,AC50,[1],"0.116 µM [falling, single point]"
CN(C)c1ccc(CNC(=O)CN(C)S(=O)(=O)c2cccc3cccnc23)cc1,cell number change,,1.3%
same,AC50,[1],"0.00411 µM [rising, full curve, poor fit]"
COc1ccc(OC)c(NC(=O)[C@@]2(CC(=O)O)CC(/C=C/c3ccccc3)=NO2)c1,cell number change,,-2.24%
same,AC50,[1],"29.1 µM [falling, partial curve]"
N#CC1(c2ccccc2)CCCN1C(=O)c1ccco1 (stereo not drawn),cell number change,,-23.8%
same,AC50,[1],"29.1 µM [falling, single point]"
COc1cccc(NC(=O)CSc2nnc(-c3ccco3)c(-c3ccco3)n2)c1,cell number change,,7.98%
CC1(C)CC(=O)C(C(C2=C(O)CC(C)(C)CC2=O)c2cccnc2)C(=O)C1 (stereo not drawn),cell number change,,-3.27%
COc1cccc(CN(C)C(=O)CSc2nc3ccccc3[nH]2)c1OC,AC50,[1],"6.51 µM [rising, partial curve, poor fit]"
Cc1cccc(CCN(C(=O)c2csnn2)C(C(=O)NC2CCCC2)c2ccco2)c1 (stereo not drawn),cell number change,,-6.67%
O=C(Nc1cccnc1)C1CC(c2ccc(Cl)c(Cl)c2)=NO1 (stereo not drawn),AC50,[1],"29.1 µM [rising, single point]"
CC(=O)N1C(C)(C)CC(=NOS(=O)(=O)c2ccccc2)CC1(C)C,cell number change,,-45.2%
same,AC50,[2],"13 µM [falling, partial curve, poor fit]"
same,AC50,[1],"8.2 µM [falling, partial curve, poor fit]"
CCC(Oc1ccccc1F)C(=O)Nc1ccc2c(c1)n(C)c(=O)n2C (stereo not drawn),cell number change,,-2.46%
CC[n+]1cc(C)ccc1/C=C/c1ccc(N(C)C)cc1,cell number change,,-94.3%
same,AC50,[2],"6.51 µM [falling, full curve, poor fit]"
O=C(O)C/C(=C\c1cc(Cl)c2c(c1)OCO2)c1nc2ccccc2s1,cell number change,,-8.97%
O=C(Nc1cccc(Cl)c1)N(CCCN1CCOCC1)Cc1ccccc1F,cell number change,,-19%
same,AC50,[1],"29.1 µM [rising, single point]"
O=C(Nc1ccccc1[N+](=O)[O-])c1cc(S(=O)(=O)N2CCOCC2)cs1,cell number change,,4.25%
same,AC50,[1],"16.4 µM [falling, single point]"
Cc1ccc(NC(=O)CN2C(=O)NC(Cc3ccccc3)C2=O)cc1Cl (stereo not drawn),cell number change,,-3.31%
CCCn1c(=O)c(C(=O)NNS(=O)(=O)c2ccc(Cl)cc2)c(O)c2ccccc21,cell number change,,12.6%
same,AC50,[2],"3.26 µM [falling, single point]"
same,AC50,[1],"6.51 µM [falling, single point]"
COc1ccc(OCC(=O)N2CCN(C(=O)Cc3ccccc3)CC2)cc1,cell number change,,34.7%
same,AC50,[1],"18.4 µM [rising, single point]"
Cc1c(OC(C)C(=O)NCCN2CCOCC2)ccc2c3c(c(=O)oc12)CCC3 (stereo not drawn),cell number change,,3.58%
same,AC50,[1],"0.82 µM [rising, full curve, poor fit]"
O=C(NC(CC1CCCCC1)C(=O)O)c1ccccc1 (stereo not drawn),cell number change,,-13.5%
same,AC50,[1],"3.26 µM [rising, partial curve]"
COc1ccc(C2=NS(=O)(=O)N(C)C(C(=O)Nc3ccc(C)cc3)=C2)cc1,cell number change,,6.63%
Cc1nc2nc(CC(=O)O)[nH]n2c(=O)c1[N+](=O)[O-],AC50,[2],"4.11 µM [falling, single point]"
same,AC50,[1],"6.51 µM [falling, single point]"
CC1Cc2cc(/C(O)=C3\C(=O)C(=O)N(Cc4cccnc4)C3c3ccccc3F)ccc2O1 (stereo not drawn),cell number change,,10.9%
same,AC50,[1],"32.6 µM [rising, partial curve, poor fit]"
CC1(C)Cc2c(sc3nc4n(c(=N)c23)CCCCC4)CO1,cell number change,,-50.4%
same,AC50,[2],"5.17 µM [falling, full curve]"
same,AC50,[1],"0.82 µM [falling, full curve]"
Cc1ccccc1N1CCN(C(=O)C2CCCCC2)CC1,cell number change,,-7.57%
same,AC50,[1],"4.11 µM [falling, partial curve]"

# A run of entries of the results above:
compound,measurement,setting,value
Cc1cc(Cl)c(OCCOCCN2CCCCC2)c(Br)c1,cell number change,,5.88%
same,AC50,[1],"0.82 µM [falling, partial curve]"
Cn1c(SCc2nc(-c3ccc(Br)cc3)no2)nnc1-c1ccco1,cell number change,,-1.73%
same,AC50,[1],"0.0731 µM [rising, full curve, poor fit]"
CC(O)Cn1c(N2CCCC2)nc2c1c(=O)[nH]c(=O)n2C (stereo not drawn),cell number change,,-0.293%
COc1ccc2nc(-c3ccccc3)cc(C(=O)OCC(=O)N3CC(C)OC(C)C3)c2c1 (stereo not drawn),cell number change,,-18%

# Fetched one by one from the entries so far (2):
compound,measurement,setting,value
O=C(COc1ccccc1Cl)NCCNC(=O)c1ccccn1,cell number change,,-17.1%
O=C(CN1CCS(=O)(=O)CC1)NNC(=O)C1CCCCC1,cell number change,,-40.9%
